Data from article PMC9763867.
Results are given in words; binding and its absence hold for the method and conditions named. For some assays here: Binding seen in cells or lysates may run through a third protein. Some binding calls cover weakened binding; strength is not graded here.

The chains behind the UniProt entries cited, without tags or fusion partners.
UniProt O60260: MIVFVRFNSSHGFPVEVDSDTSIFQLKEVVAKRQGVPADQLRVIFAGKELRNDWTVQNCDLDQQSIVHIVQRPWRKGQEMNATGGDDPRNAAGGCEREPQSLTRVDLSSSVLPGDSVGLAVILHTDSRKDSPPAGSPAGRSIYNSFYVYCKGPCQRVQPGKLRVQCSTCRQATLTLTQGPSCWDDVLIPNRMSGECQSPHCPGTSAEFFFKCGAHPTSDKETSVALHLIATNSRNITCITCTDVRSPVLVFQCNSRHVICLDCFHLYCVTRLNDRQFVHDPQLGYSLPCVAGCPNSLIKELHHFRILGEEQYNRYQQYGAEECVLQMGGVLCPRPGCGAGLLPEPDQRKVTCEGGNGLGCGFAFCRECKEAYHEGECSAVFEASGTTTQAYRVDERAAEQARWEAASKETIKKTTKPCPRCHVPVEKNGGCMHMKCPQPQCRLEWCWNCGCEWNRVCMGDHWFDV

Legend:
[1] = molecular target: 3 × FLAG-PHB2 (prohibitin 2), wild type (UniProt Q99623); assay: co-IP; lysates of transfected HEK293T cells treated with DMSO (normal condition, no A/O); precipitated with anti-FLAG antibody; EGFP-Parkin detected with anti-GFP
[2] = molecular target: endogenous PHB2 of HEK293 cells (human (endogenous in HEK293)) (UniProt Q99623); assay: proximity ligation; Duolink in situ PLA in fixed, permeabilised HEK293 cells treated with 5 μg/ml A/O for 4 h (with or without MG132 10 μM); anti-GFP with anti-PHB2, or anti-FLAG with anti-LC3
[3] = molecular target: 3 × FLAG-PHB2 (prohibitin 2), wild type (UniProt Q99623); assay: co-IP; lysates of transfected HEK293T cells (also si-OPTN cells with HA-OPTN and mCherry-Parkin) treated with 5 μg/ml A/O for 4 h; precipitated with anti-FLAG antibody on Protein G Magnetic Beads, 4 °C, 4 h; EGFP-tagged partner detected with anti-GFP
His-PHB2, wild type = His-PHB2, wild type (UniProt Q99623); assay: pull-down; His pull-down: His-tagged protein from E. coli held on His-tag resin, incubated with the GST-tagged protein 2 h at 4 °C, washed four times with PBS, immunoblot; both purified
[4] = molecular target: endogenous PHB2 of SH-SY5Y cells (human (endogenous in SH-SY5Y)) (UniProt Q99623); assay: co-IP; lysates of primary MEFs, SH-SY5Y cells (lentiviral mCherry-Parkin) or HeLa cells treated with 5 μg/ml A/O for 4 h; precipitated with anti-PHB2 antibody; blots with anti-Parkin and anti-LC3

EGFP-Parkin, wild type (from UniProt O60260 1-465)
binding [1]: binds weakly
binding [2]: binds
binding [3]: binds

GST-Parkin, wild type (from UniProt O60260 1-465)
binding (His-PHB2, wild type): binds

mCherry-Parkin (lentiviral, in SH-SY5Y cells) (from UniProt O60260 1-465)
binding [4]: binds
